One compound from patent publication US8541395B2 (priority 2009, dated 2013) can be followed below.

Chains of the proteins cited; added tags and fusions are not shown.
UniProt Q13936, whole entry: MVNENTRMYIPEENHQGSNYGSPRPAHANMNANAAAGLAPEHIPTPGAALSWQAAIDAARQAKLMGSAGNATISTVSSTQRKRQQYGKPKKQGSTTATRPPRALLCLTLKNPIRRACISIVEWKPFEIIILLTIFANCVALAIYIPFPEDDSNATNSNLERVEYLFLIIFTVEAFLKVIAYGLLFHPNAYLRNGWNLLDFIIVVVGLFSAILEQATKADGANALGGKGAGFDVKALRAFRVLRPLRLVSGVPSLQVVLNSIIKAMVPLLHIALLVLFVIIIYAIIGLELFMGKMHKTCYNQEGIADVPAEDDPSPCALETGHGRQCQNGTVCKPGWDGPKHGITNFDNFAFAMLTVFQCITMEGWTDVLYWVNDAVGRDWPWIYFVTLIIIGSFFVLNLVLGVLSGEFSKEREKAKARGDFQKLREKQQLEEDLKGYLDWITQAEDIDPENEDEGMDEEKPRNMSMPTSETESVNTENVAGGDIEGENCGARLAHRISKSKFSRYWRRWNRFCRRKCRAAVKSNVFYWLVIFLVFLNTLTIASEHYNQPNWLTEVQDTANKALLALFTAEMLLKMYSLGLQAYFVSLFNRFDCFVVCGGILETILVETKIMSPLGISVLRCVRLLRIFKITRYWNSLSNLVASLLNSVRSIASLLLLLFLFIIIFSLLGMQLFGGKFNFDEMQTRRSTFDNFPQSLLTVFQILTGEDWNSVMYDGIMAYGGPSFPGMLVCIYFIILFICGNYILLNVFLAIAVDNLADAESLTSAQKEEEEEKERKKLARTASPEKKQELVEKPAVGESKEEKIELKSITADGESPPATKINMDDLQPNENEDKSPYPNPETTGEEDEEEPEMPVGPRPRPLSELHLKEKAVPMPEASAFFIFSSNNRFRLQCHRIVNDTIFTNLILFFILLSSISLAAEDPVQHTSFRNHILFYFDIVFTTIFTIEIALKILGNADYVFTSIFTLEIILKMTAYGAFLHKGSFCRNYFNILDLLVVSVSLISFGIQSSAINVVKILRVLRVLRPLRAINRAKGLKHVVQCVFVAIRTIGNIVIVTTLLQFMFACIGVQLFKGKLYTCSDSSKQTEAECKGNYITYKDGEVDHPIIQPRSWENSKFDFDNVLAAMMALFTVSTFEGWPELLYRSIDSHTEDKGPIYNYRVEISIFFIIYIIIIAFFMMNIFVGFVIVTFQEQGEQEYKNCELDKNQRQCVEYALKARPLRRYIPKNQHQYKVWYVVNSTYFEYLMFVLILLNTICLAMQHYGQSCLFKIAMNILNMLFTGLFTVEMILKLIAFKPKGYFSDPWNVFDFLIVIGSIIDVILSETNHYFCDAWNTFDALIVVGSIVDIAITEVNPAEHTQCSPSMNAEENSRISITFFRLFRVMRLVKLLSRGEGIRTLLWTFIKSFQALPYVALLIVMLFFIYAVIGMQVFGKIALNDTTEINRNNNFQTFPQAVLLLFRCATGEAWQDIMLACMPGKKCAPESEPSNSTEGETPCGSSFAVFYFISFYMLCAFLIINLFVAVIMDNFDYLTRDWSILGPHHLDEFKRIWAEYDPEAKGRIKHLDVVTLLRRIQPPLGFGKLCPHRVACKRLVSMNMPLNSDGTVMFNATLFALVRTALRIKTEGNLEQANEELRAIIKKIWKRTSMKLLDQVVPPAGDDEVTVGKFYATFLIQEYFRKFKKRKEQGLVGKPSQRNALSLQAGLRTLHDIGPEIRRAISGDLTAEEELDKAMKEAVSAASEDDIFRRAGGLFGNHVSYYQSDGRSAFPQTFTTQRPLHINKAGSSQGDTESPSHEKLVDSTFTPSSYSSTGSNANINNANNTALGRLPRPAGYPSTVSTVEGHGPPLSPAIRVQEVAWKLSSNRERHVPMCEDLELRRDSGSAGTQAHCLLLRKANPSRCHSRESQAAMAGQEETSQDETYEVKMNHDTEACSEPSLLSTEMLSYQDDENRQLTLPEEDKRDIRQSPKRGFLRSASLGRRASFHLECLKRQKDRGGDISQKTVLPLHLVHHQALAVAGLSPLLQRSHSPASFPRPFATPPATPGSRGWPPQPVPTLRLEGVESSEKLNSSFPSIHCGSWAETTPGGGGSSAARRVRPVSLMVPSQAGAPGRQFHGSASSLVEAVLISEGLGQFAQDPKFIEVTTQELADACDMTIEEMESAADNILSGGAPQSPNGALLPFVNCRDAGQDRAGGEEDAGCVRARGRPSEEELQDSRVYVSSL

The target in the data set is Cav1.2 (Homo sapiens, UniProt Q13936). Briefly: in vitro.

In the case of `COC(=O)C1=C(C)NC(C)=C(C(=O)OC)C1c1ccccc1[N+](=O)[O-]` [Nifedipine], the inhibition at 5 min, 1 µM worked out at 93.6%.
